# Source: the supplement of paper PMC11098740
# Some of the results follow. Single values are uncertain, as repeats are few or missing.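 Test system: a mixed pool of 41 HAP1 clones in which 61 cancer-associated proteins carry fluorescent tags inserted into introns, and each clone is identified from its image pattern. Read-outs are compared with DMSO-treated control wells. The BRD4 degrader dBET6 served as the positive control.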
# Biological target: BRD4 (intron 10 mScarlet tag, HAP1) (UniProt O60885)
# Assay: BRD4 median nuclear fluorescence intensity change vs DMSO (log2 fold change); higher = more BRD4 protein
# Details: 6 h
row,SMILES,BRD4 median nuclear fluorescence intensity change (log2)
1,Cc1nn(C)c2sc(C(=O)Nc3ccc4oc(C(F)(F)F)nc4c3)cc12 (10 µM),0.0258
2,COc1cccc(-n2cnnc2SCC(=O)NCc2ccc(Cl)cc2)c1 (10 µM),-0.125
3,COc1cc(S(=O)(=O)NCCc2c(C)[nH]c3ccc(Br)cc23)c(C)cc1C (10 µM),0.102
4,COc1cc2c(cc1OC)CN(C(C)C(=O)Nc1ccccc1Cl)CC2 (centres undefined) (10 µM),0.0306
5,COc1ccc2c(c1)CCCN2C(=O)c1cc(Cl)cc(Cl)c1 (10 µM),0.1
6,CCOC(=O)c1c(-c2cccs2)csc1NC(=O)CCCl (10 µM),0.00914
7,O=C(CCN1CCSC1=O)NCc1nccc2ccccc12 (10 µM),0.03
8,CC(=O)Nc1nc2ccc(NC(=O)c3c(C)nn(C)c3C)cc2s1 (10 µM),-0.0064
9,O=C(Cc1noc(CCl)n1)NCc1ccccc1 (10 µM),0.0562
10,Cc1cn2cc(NC(=O)COCc3ccccc3Cl)ccc2n1 (10 µM),0.0545
11,CCOC(=O)C1=C(CCl)NC(=O)NC1c1ccccc1OC(F)F (centres undefined) (10 µM),0.0225
12,CN(C)c1c(F)cc(NC(=O)NCc2ccccc2CO)cc1F (10 µM),0.133
13,COc1ccc2nc(C)c(C(=O)Nc3nc(-c4ccccn4)cs3)cc2c1 (10 µM),0.0233
14,Cc1cccc(/C=C/C(=O)c2ccc(O)c(CCCl)c2)c1 (10 µM),-0.0425
15,CCN(c1ccc(NC(=O)CCc2cscn2)cc1)C(C)C (10 µM),0.0251
16,CCCN1C(=O)C(=O)c2cc(Cl)ccc21 (10 µM),0.17
17,CCOC(=O)C1=C(CCl)NC(=O)NC1c1ccccc1 (centres undefined) (1 µM),-0.0404
18,COc1ccc2cc(C(C)c3nc4ccccc4n3C(C)C)ccc2c1 (centres undefined) (0.1 µM),0.122
19,COc1ccc(-c2noc(CCl)n2)c(OC)c1 (1 µM),0.00577
20,O=C(Nc1ccc(OC(F)(F)F)cc1)N1CCc2ccccc2C1 (10 µM),0.0406

row,SMILES,BRD4 median nuclear fluorescence intensity change (log2)
1,N#CC(C#N)=C1C=CC=CN1/C(=C/c1ccc(F)cc1)C(=O)c1ccccc1 (1 µM),0.165
2,Cc1nc2ccc(Cl)cc2cc1C(=O)NCCNc1ncnc2sccc12 (10 µM),0.0407
3,CCOC(=O)C1=C(CCl)NC(=O)NC1c1cccs1 (centres undefined) (10 µM),0.0115
4,COc1cccc(CS(=O)(=O)CCC(=O)Nc2ccc3c(c2)CCC3)c1 (1 µM),-0.000781
5,CN(C)c1ccc(C(=NC(=O)c2ccccc2NS(=O)(=O)c2ccc(F)cc2)c2ccc(N(C)C)cc2)cc1 (10 µM),0.166
6,Cc1cc(N2CCN(CCOc3ccc(Cl)cc3)CC2)nc(N)n1 (10 µM),-0.0246
7,COC(=O)Nc1nc2cc(C(=O)c3cccs3)ccc2[nH]1 [nocodazole] (10 µM),-0.0164
8,Cn1nc(CC(=O)Nc2cc(C(C)(C)C)ccc2O)c2ccccc2c1=O (10 µM),0.088
9,O=C(Nc1cccc(CN2CCCC2=O)c1)c1ccc(-c2ccccc2)cc1 (10 µM),0.0736
10,N#CCn1c(CCl)nc2sc3c(c2c1=O)CCCC3 (10 µM),0.0895
11,C[C@@H](NC(=O)c1ncnc(N)c1Cl)c1ncc(C(=O)Nc2cc(C(F)(F)F)c(Cl)cn2)s1 (10 µM),0.00671
12,COc1ccccc1Nc1nc(-c2ccc(S(C)(=O)=O)cc2)cs1 (10 µM),0.174
13,COc1ccc(-n2ccc(C(=O)Nc3ccnn3-c3ccccc3C)n2)cc1 (0.1 µM),0.0317
14,O=C(NCC(c1cccs1)N1CCOCC1)c1ccsc1 (centres undefined) (10 µM),-0.0141
15,COc1ccc(C)cc1N1CC(C(=O)Nc2nc3ccccc3[nH]2)CC1=O (centres undefined) (1 µM),0.0768
16,COc1ccc(S(=O)(=O)Nc2ccc(-c3ccccc3)cc2)c(C)c1C (10 µM),0.0951
17,COc1ccccc1-c1cc(C(=O)NCCc2ccccc2)no1 (10 µM),0.0386
18,O=C(CCc1cccs1)Nc1ncc(Cc2cccc(Cl)c2)s1 (0.1 µM),0.0645
19,CC1CCc2c(sc3nc(CCCl)nc(N)c23)C1 (centres undefined) (10 µM),0.0428

# Part of the list above in order of heavy-atom count, descending:
row,SMILES,BRD4 median nuclear fluorescence intensity change (log2)
5,CN(C)c1ccc(C(=NC(=O)c2ccccc2NS(=O)(=O)c2ccc(F)cc2)c2ccc(N(C)C)cc2)cc1 (10 µM),0.166
11,C[C@@H](NC(=O)c1ncnc(N)c1Cl)c1ncc(C(=O)Nc2cc(C(F)(F)F)c(Cl)cn2)s1 (10 µM),0.00671
9,O=C(Nc1cccc(CN2CCCC2=O)c1)c1ccc(-c2ccccc2)cc1 (10 µM),0.0736
8,Cn1nc(CC(=O)Nc2cc(C(C)(C)C)ccc2O)c2ccccc2c1=O (10 µM),0.088
4,COc1cccc(CS(=O)(=O)CCC(=O)Nc2ccc3c(c2)CCC3)c1 (1 µM),-0.000781
6,Cc1cc(N2CCN(CCOc3ccc(Cl)cc3)CC2)nc(N)n1 (10 µM),-0.0246
7,COC(=O)Nc1nc2cc(C(=O)c3cccs3)ccc2[nH]1 [nocodazole] (10 µM),-0.0164
10,N#CCn1c(CCl)nc2sc3c(c2c1=O)CCCC3 (10 µM),0.0895
19,CC1CCc2c(sc3nc(CCCl)nc(N)c23)C1 (centres undefined) (10 µM),0.0428
